# Assay results reported in PubChem BioAssay (EPA / NIEHS).
# By UniProt entry, the sequences of proteins in these tests, tags left out. Where a name states a change or a piece, a line headed by the entry shows the natural chain unless it says otherwise.
# UniProt P21709: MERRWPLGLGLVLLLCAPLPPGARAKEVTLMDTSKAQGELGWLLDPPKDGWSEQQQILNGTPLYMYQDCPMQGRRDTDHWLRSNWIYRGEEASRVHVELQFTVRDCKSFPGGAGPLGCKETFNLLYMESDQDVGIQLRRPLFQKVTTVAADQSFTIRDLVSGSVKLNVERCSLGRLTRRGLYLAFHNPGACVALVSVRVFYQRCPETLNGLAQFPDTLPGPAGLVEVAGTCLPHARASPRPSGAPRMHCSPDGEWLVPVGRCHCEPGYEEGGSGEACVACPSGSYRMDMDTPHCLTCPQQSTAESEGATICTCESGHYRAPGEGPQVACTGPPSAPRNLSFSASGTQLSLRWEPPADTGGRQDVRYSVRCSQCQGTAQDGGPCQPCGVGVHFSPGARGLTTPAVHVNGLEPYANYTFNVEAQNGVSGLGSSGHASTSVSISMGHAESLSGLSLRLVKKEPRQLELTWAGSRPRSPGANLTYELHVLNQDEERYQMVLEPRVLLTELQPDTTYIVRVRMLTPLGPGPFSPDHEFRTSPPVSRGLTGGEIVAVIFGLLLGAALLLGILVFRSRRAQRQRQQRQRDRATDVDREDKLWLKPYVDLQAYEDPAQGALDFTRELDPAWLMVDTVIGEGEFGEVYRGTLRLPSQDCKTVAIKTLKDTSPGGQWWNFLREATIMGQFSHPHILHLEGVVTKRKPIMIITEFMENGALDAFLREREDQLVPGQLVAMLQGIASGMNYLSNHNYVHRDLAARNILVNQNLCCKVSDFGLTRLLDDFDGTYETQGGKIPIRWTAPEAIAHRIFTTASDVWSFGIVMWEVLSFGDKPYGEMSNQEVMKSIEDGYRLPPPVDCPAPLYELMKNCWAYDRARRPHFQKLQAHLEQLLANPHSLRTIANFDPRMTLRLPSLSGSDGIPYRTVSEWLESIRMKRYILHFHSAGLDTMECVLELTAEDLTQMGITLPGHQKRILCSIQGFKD
# UniProt Q12923: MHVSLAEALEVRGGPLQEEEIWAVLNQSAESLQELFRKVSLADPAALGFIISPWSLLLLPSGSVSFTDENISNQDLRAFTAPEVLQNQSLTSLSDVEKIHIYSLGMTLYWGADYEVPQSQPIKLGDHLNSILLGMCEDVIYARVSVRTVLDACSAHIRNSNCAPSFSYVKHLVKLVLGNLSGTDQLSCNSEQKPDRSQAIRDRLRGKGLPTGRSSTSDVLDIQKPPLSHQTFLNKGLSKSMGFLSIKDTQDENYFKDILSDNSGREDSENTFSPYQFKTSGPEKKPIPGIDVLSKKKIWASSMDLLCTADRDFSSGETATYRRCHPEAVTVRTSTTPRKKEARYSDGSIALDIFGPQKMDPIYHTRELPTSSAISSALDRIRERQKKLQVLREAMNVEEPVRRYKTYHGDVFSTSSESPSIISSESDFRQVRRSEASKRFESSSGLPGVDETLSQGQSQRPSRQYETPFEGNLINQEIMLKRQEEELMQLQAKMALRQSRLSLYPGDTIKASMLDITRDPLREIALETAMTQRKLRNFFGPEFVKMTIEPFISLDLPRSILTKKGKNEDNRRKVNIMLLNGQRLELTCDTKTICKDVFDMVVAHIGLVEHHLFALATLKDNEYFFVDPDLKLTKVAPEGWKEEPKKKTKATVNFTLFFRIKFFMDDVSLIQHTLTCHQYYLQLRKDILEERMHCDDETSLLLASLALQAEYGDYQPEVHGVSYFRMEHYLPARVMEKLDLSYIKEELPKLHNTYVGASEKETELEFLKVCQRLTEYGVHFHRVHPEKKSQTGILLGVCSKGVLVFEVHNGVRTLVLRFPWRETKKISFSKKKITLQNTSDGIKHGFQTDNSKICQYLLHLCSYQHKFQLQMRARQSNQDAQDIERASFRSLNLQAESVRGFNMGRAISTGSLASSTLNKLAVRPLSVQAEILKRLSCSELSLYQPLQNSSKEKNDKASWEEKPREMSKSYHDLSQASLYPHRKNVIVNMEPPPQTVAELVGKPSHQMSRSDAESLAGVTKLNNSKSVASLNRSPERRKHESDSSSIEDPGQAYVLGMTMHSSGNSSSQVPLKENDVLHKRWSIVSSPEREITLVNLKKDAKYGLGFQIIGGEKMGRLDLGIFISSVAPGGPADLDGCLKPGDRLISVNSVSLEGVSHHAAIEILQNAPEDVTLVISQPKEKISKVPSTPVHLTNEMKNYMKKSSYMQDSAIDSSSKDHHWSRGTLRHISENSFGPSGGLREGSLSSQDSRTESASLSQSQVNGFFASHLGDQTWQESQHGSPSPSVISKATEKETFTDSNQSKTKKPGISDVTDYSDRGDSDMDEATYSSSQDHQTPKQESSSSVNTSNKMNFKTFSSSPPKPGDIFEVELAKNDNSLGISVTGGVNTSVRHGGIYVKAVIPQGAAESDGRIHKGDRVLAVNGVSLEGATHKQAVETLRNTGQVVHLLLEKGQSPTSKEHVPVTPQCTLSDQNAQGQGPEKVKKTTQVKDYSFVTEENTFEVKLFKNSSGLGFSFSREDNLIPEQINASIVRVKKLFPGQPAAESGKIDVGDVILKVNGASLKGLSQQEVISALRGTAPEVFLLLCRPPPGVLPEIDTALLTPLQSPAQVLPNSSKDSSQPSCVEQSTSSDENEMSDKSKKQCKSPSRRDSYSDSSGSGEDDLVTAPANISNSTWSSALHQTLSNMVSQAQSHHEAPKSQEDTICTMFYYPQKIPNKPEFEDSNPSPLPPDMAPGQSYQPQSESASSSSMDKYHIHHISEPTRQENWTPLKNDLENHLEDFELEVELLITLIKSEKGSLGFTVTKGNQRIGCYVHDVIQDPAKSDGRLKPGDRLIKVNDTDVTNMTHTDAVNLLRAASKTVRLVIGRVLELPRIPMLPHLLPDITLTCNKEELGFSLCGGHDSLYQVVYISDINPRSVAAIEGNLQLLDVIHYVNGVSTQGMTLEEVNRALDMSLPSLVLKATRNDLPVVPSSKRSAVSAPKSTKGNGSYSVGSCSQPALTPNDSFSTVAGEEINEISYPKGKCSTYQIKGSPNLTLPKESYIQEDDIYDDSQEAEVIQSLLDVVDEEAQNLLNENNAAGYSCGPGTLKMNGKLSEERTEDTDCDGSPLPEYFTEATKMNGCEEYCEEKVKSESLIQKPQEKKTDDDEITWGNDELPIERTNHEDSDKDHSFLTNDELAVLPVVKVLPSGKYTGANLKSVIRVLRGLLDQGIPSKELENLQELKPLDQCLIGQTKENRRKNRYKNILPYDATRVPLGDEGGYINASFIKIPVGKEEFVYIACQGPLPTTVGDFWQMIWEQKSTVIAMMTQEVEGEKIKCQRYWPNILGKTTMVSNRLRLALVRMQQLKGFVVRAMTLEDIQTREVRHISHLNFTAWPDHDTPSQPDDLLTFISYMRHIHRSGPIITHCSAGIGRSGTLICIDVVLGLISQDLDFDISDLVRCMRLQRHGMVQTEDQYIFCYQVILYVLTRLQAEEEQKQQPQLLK
# UniProt Q5TCH4: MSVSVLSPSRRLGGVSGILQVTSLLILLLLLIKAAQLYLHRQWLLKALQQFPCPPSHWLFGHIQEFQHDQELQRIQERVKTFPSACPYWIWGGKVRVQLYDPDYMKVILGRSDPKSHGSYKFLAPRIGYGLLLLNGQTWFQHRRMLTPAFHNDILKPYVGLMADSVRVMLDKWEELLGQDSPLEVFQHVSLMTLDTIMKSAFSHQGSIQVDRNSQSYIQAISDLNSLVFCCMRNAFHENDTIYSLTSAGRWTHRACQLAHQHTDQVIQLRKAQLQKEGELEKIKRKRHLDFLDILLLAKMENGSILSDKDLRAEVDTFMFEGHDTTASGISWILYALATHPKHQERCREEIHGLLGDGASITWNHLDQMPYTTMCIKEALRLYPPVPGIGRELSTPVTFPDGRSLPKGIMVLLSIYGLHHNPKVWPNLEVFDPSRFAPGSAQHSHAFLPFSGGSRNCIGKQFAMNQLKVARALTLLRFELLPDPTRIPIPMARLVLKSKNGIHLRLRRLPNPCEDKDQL
# UniProt P19838: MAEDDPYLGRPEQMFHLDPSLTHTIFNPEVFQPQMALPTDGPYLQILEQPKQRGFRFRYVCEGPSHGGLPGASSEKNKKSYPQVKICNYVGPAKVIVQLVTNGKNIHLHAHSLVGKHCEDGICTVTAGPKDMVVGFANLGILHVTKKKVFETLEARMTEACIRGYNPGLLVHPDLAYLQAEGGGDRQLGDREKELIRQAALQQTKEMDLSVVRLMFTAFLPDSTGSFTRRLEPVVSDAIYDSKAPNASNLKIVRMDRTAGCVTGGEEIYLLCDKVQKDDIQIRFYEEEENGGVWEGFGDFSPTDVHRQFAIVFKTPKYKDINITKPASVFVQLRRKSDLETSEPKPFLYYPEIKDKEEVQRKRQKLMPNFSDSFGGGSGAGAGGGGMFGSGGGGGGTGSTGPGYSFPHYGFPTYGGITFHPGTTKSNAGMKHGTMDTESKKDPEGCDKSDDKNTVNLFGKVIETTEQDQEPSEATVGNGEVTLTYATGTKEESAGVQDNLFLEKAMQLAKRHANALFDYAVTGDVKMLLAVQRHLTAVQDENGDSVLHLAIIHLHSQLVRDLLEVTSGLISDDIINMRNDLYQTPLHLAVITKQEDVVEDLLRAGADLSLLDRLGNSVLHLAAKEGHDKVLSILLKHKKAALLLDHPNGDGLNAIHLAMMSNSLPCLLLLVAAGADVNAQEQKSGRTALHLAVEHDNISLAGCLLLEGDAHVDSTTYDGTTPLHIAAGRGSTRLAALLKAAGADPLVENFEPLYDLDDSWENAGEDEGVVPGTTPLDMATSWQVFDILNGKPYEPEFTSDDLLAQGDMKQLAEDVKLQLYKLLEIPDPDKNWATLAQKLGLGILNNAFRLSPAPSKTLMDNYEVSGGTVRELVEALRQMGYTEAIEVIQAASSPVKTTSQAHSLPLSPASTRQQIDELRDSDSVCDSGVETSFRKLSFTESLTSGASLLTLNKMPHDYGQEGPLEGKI
# UniProt P19793: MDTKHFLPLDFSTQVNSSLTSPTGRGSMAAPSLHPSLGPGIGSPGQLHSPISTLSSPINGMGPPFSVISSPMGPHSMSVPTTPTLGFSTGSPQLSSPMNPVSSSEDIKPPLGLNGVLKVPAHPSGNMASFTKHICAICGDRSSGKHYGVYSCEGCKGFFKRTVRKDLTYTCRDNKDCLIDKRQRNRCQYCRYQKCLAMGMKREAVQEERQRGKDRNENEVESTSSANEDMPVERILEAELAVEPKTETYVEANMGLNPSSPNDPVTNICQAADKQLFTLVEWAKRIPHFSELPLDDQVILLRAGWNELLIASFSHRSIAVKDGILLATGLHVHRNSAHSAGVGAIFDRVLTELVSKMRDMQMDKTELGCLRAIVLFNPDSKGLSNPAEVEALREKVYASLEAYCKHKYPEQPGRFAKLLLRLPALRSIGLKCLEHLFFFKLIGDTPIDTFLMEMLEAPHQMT
# UniProt P10415, whole entry, looked up: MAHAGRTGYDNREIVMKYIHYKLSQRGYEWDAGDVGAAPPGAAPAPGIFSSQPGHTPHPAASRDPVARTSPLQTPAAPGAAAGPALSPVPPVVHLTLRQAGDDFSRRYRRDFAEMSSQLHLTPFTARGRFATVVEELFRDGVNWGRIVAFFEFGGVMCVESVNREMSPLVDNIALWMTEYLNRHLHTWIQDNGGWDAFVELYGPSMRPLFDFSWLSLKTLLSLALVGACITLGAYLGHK
# For some of these results: The hits were mostly taken out for another list; the other results follow. Results filed as inconclusive are left out. This is a selection; strong and weak results do not stand in their true shares. Calls of active or inactive are those of the source. Rule for the calls, unless noted: active = hit-call score of the fitted dose curve at least 0.9, where 1 is the maximum; inactive = score below 0.9.
# Key:
# [1] = read-out: Tissue Factor, F3 (gene 2152); experiment: BSK_CASM3C_TissueFactor: BioMAP Diversity Plus: CASM3C Assay for Tissue Factor Biomarker Activity (AID 2283052); conditions: actives raise or lower the signal; primary human coronary artery smooth muscle cells;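 note: cell surface tissue factor protein level read by ELISA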
# [2] = target: human Ephrin type-A Receptor 1 (EphA1), EPHA1 (gene 2041) (UniProt P21709); experiment: NVS_ENZ_hEphA1: NovaScreen (NVS) Enzymatic Assay for human Ephrin type-A Receptor 1 (EphA1) (AID 2283158; active = hit-call score of the fitted dose curve at least 0.9, where 1 is the maximum;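 note: activity is signal loss versus DMSO meaning EphA1 kinase inhibition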)
# How it was run: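 Fluorescent substrate conversion, resolved by mobility-shift separation, measured 1 hour post-dosing using recombinant enzyme; signal loss relative to DMSO baseline. Single-concentration duplicates at 25 uM preceded singleton concentration series topping at 50 uM.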
# [3] = target: Tyrosine-protein phosphatase non-receptor type 13 (Homo sapiens) (UniProt Q12923); experiment: NVS_ENZ_hPTPN13: NovaScreen (NVS) Enzymatic Assay for human Protein Tyrosine Phosphatase Non-receptor Type 13 (PTPN13) (AID 2283205; active = hit-call score of the fitted dose curve at least 0.9, where 1 is the maximum)
# How it was run: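 Screened first at a single 25 uM in duplicate; compounds passing the threshold (e.g. 30% inhibition) were rerun in concentration series, top 50 uM. Recombinant enzyme, fluorescent substrate, mobility-shift separation, 0.5 h read. Data fitted as inhibition relative to DMSO.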
# [4] = read-out: Alkaline Phosphatase, Placental (ALPP) gene, ALPP (gene 250); experiment: LTEA_HepaRG_ALPP: Life Technologies and Expression Analysis (LTEA) Assay for Alkaline Phosphatase, Placental (ALPP) gene using HepaRG (AID 2283468); conditions: actives raise or lower the signal; mRNA level, 48 h
# How it was run: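 ALPP transcript level, measured by qRT-PCR and normalized to three housekeeping genes (ACTB, GAPDH, POLR2A), after 48 h dosing of differentiated HepaRG in serum-free induction medium. Top concentration 100 uM with half-log dilutions (8 points, 0.5% DMSO, duplicates); bidirectional fitting relative to DMSO.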
# [5] = read-out: Cytochrome P450 4A22 (Homo sapiens) (UniProt Q5TCH4); experiment: LTEA_HepaRG_CYP4A22: Life Technologies and Expression Analysis (LTEA) Assay for Cytochrome P450 4A22 (CYP4A22) using HepaRG (AID 2283495); conditions: actives raise or lower the signal; mRNA level, 48 h
# How it was run: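 Gene expression measured by qRT-PCR against three housekeeping genes (ACTB, GAPDH, POLR2A), with gain or loss fitted relative to 0.5% DMSO vehicle. HepaRG cultures received 48 h chemical treatment, top concentration 100 uM, half-log steps, duplicate wells.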
# [6] = read-out: Nuclear factor NF-kappa-B p105 subunit (Homo sapiens) (UniProt P19838); experiment: LTEA_HepaRG_NFKB1: Life Technologies and Expression Analysis (LTEA) Assay for Nuclear Factor Kappa B Subunit 1 (NFKB1) using HepaRG (AID 2283521); conditions: actives raise or lower the signal; mRNA level, 48 h
# How it was run: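 Differentiated human HepaRG cells in serum-free induction medium with 0.5% DMSO were exposed for 48 h to eight half-log concentrations, top 100 uM, in duplicate. NFKB1 mRNA measured by Fluidigm TaqMan qRT-PCR, normalised to ACTB, GAPDH and POLR2A; bidirectional fit versus DMSO.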
# [7] = read-out: ABC Transporter (ABCB1), ABCB1 (gene 5243); experiment: CLD_ABCB1_6hr: CellzDirect (CLD) Gene Expression Assay for ABC Transporter (ABCB1) at 6 hours (AID 2283659; active = hit-call score of the fitted dose curve at least 0.9, where 1 is the maximum;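 note: hits raise ABCB1 transcript above the DMSO vehicle baseline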)
# How it was run: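 ABCB1 transcript measured by quantitative nuclease protection assay, chemiluminescent read-out, 6 h after dosing human hepatocyte cultures (0.2% DMSO vehicle, daily redosing). Activity fitted as increase over DMSO baseline; cytotoxicity flagged by phase-contrast morphology.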
# [8] = BSK_CASM3C_Proliferation: Cell Proliferation Assessment in the BioMAP Diversity Plus: CASM3C Assay (AID 2283047); conditions: primary human coronary artery smooth muscle cells;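 note: sulforhodamine B total protein stain as relative cell number at 560 nm; sub-confluent cells exposed 48 h before staining; fitted both ways against DMSO so gain or loss of cell number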
# [9] = read-out: ABC Transporter (ABCC2), ABCC2 (gene 1244); experiment: LTEA_HepaRG_ABCC2: Life Technologies and Expression Analysis (LTEA) Assay for ABC Transporter (ABCC2) using HepaRG (AID 2283464); conditions: actives raise or lower the signal; mRNA level, 48 h
# How it was run: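 Endpoint is ABCC2 transcript level from qRT-PCR, normalized to three housekeeping genes and fitted bidirectionally relative to DMSO. Human HepaRG cells received test chemical for 48 h at up to 100 uM (8 points, half-log steps, 0.5% DMSO), duplicate wells.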
# [10] = read-out: Glutamate-cysteine ligase catalytic (GCLC), GCLC (gene 2729); experiment: LTEA_HepaRG_GCLC: Life Technologies and Expression Analysis (LTEA) Assay for Glutamate-cysteine ligase catalytic (GCLC) using HepaRG (AID 2283498); conditions: actives raise or lower the signal; mRNA level, 48 h
# How it was run: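 Expression by TaqMan qRT-PCR, normalized to three housekeeping genes (ACTB, GAPDH, POLR2A), with up- or down-regulation fitted against DMSO. HepaRG cells dosed in duplicate for 48 h with 8 half-log concentrations up to 100 uM, vehicle 0.5% DMSO.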
# [11] = BSK_hDFCGF_Proliferation: Cell Proliferation Assessment in the BioMAP Diversity Plus: hDFCGF Assay (AID 2283059); conditions: primary human foreskin fibroblasts;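 note: curves fitted for both rise and fall of signal versus DMSO baseline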
# How it was run: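 Primary human foreskin fibroblasts, sub-confluent; […]; 10% TCA fix, 0.1% SRB stain, A560 total protein. Gain/loss fitted bidirectionally vs DMSO control.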
# [12] = read-out: Glutathione S-Transferase (GSTA2), GSTA2 (gene 2939); experiment: LTEA_HepaRG_GSTA2: Life Technologies and Expression Analysis (LTEA) Assay for Glutathione S-Transferase (GSTA2) using HepaRG (AID 2283497); conditions: actives raise or lower the signal; mRNA level, 48 h
# How it was run: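 GSTA2 transcript levels came from Fluidigm TaqMan qRT-PCR normalized to three housekeeping genes, fitted in both directions against DMSO. HepaRG cultures received chemicals for 48 h in serum-free induction medium (0.5% DMSO), 8 half-log concentrations up to 100 uM, duplicate.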
# [13] = read-out: Insulin Like Growth Factor 1 (IGF1), IGF1 (gene 3479); experiment: LTEA_HepaRG_IGF1: Life Technologies and Expression Analysis (LTEA) Assay for Insulin Like Growth Factor 1 (IGF1) using HepaRG (AID 2283506); conditions: actives raise or lower the signal; mRNA level, 48 h
# How it was run: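 qRT-PCR readout of IGF1 mRNA, normalized to three housekeeping genes, after 48 h chemical exposure of HepaRG cells. Concentrations: 8-point half-log series, top 100 uM, 0.5% DMSO vehicle. Gain or loss fitted against DMSO baseline.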
# [14] = read-out: sulfotransferase 2A1 (SULT2A1), SULT2A1 (gene 6822); experiment: LTEA_HepaRG_SULT2A1: Life Technologies and Expression Analysis (LTEA) Assay for sulfotransferase 2A1 (SULT2A1) using HepaRG (AID 2283531); conditions: actives raise or lower the signal; mRNA level, 48 h
# How it was run: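 Expression change of SULT2A1, by qRT-PCR with three housekeeping-gene normalization, was scored bidirectionally versus DMSO. Cells: differentiated HepaRG, dosed in duplicate for 48 h across 8 points, highest 100 µM, half-log dilution, 0.5% DMSO.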
# [15] = read-out: Plasminogen activator inhibitor-1 (PAI1), SERPINE1 (gene 5054); experiment: BSK_hDFCGF_PAI1: BioMAP Diversity Plus: hDFCGF Assay for Plasminogen activator inhibitor-1 (PAI1) Biomarker Activity (AID 2283066); conditions: actives raise or lower the signal; primary human foreskin fibroblasts
# How it was run: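 ELISA readout of PAI-1 from primary human skin fibroblast cultures, 24 h after compound addition. Gain or loss of signal was fitted bidirectionally against DMSO baseline.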
# [16] = read-out: Macrophage colony-stimulating factor (MCSF), CSF1 (gene 1435); experiment: BSK_hDFCGF_MCSF: BioMAP Diversity Plus: hDFCGF Assay for Macrophage colony-stimulating factor (MCSF) Biomarker Activity (AID 2283060); conditions: actives raise or lower the signal; primary human foreskin fibroblasts
# How it was run: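 M-CSF levels read by ELISA at 24 h post-dosing in human skin fibroblasts. Parallel cultures stained with SRB assessed cytotoxicity at the same time point; response fitted in both directions against the DMSO baseline.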
# [17] = Tanguay_ZF_120hpf_PIG_legacy: (Legacy) Oregon State University Tanguay Lab 120 Hour Post-fertilization zebrafish Assay for Pigmentation Malformation (AID 2283650; active = hit-call score of the fitted dose curve at least 0.9, where 1 is the maximum)
# How it was run: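 Pigment malformation recorded as a binary call at 120 hpf in zebrafish (Tropical 5D) exposed singly from 6 hpf after pronase dechorionation. Static, sealed, 28C exposure, 0.64% DMSO; mortality excludes scoring; positive-direction fit against DMSO.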
# [18] = target: Retinoic acid receptor RXR-alpha (Homo sapiens) (UniProt P19793); experiment: OT_NURR1_NURR1RXRa_0480: Odyssey Thera (OT) 8-hour HEK293T Protein Complementation Assay for Nurr1/retinoid X receptor (RXR) (AID 2283385; active = hit-call score of the fitted dose curve at least 0.9, where 1 is the maximum)
# How it was run: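 Read-out: fluorescence from protein-fragment complementation between Nurr1 and RXRα in human HEK293T cells, 8 h after dosing. DMSO served as negative control; increased signal counted as activity.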
# [19] = read-out: Apoptosis regulator Bcl-2 (Homo sapiens) (UniProt P10415); experiment: LTEA_HepaRG_BCL2: Life Technologies and Expression Analysis (LTEA) Assay for Bcl-2 gene using HepaRG (AID 2283475); conditions: actives raise or lower the signal; mRNA level, 48 h
# How it was run: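 qRT-PCR read-out (Fluidigm TaqMan) of BCL2 transcript, normalised to three housekeeping genes, after 48 h chemical exposure of HepaRG cells; 8-point half-log series, top 100 uM, 0.5% DMSO vehicle. Gain or loss of signal fitted relative to DMSO baseline.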
# [20] = read-out: Transforming Growth Factor (TGFB1), TGFB1 (gene 7040); experiment: LTEA_HepaRG_TGFB1: Life Technologies and Expression Analysis (LTEA) Assay for Transforming Growth Factor (TGFB1) Transporter using HepaRG (AID 2283533); conditions: actives raise or lower the signal; mRNA level, 48 h
# How it was run: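 TGFB1 transcript measured by qRT-PCR with normalisation to three housekeeping genes (ACTB, GAPDH, POLR2A); human HepaRG line treated in duplicate for 48 hr with an 8-point series topping at 100 uM, 0.5% DMSO vehicle, bidirectionally fitted.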
# [21] = ACEA_AR_antagonist_AUC_viability: ACEA Biosciences xCELLigence Real-Time Cell Analysis on Androgen Receptor Antagonism for Viability (AID 2283776; active = hit-call score of the fitted dose curve at least 0.9, where 1 is the maximum;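 note: area under impedance growth curve at 80 h after dosing as viability; hits lower the growth signal relative to DMSO meaning cytotoxicity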)
# How it was run: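 22Rv1 human prostate cancer cells were seeded on electrode plates, monitored overnight, then exposed to eight 1:4 dilutions from 100 uM final. Impedance-based growth kinetics at 80 h gave an AUC viability endpoint normalized to DMSO.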
# [22] = CCTE_Simmons_MITO_max_resp_rate: CCTE's HepG2 Seahorse XF Respirometric Screening Assay at Maximal Respiratory State [uncoupled], Simmons Lab (AID 2284002); conditions: actives raise or lower the signal
# How it was run: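 Maximal (FCCP-uncoupled) respiration rate in HepG2, from Seahorse kinetic OCR over 72 min at 6 min cycles. Compounds at 125 nM–100 uM final, 7 points, three biological replicates; both directions fit relative to DMSO.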
# [23] = read-out: Urokinase-type plasminogen activator receptor (uPAR), PLAUR (gene 5329); experiment: BSK_CASM3C_uPAR: BioMAP Diversity Plus: CASM3C Assay for Urokinase-type plasminogen activator receptor (uPAR) Biomarker Activity (AID 2283054); conditions: actives raise or lower the signal; primary human coronary artery smooth muscle cells;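 note: cell-surface uPAR protein level quantified by ELISA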
smiles,measurement,setting,value
N#Cc1c(Cl)c(Cl)c(Cl)c(C#N)c1Cl,outcome,[1],inactive
same,outcome,[2],inactive
same,outcome,[3],inactive
same,AC50,[4],active: 1.27 µM
same,outcome,[5],inactive
same,outcome,[6],inactive
same,outcome,[7],inactive
CS(=O)(=O)NC(=O)c1cc(Oc2ccc(C(F)(F)F)cc2Cl)ccc1[N+](=O)[O-],outcome,[1],inactive
Clc1ccccc1-c1nnc(-c2ccccc2Cl)nn1,AC50,[8],active: 10.9 µM
same,AC50,[9],active: 11.4 µM
same,outcome,[10],inactive
CC(C)(C)C(=O)C(Oc1ccc(Cl)cc1)n1cncn1 (stereo not given),AC50,[11],active: 11.6 µM
same,outcome,[12],inactive
same,AC50,[13],active: 9.92 µM
same,outcome,[14],inactive
O=S(=O)(c1ccc(Cl)cc1)c1cc(Cl)c(Cl)cc1Cl,AC50,[15],active: 3.97 µM
Clc1nc(Cl)nc(Nc2ccccc2Cl)n1,AC50,[16],active: 16.2 µM
same,outcome,[17],inactive
N#Cc1c[nH]cc1-c1cccc2c1OC(F)(F)O2,AC50,[11],active: 10.5 µM
same,outcome,[18],inactive
same,outcome,[19],inactive
same,outcome,[20],inactive
same,AC50,[21],active: 9.92 µM
same,outcome,[22],inactive
CCC(C)c1cc([N+](=O)[O-])cc([N+](=O)[O-])c1OC(=O)C=C(C)C (stereo not given),AC50,[23],active: 25.5 µM
